The list shows only some results of the screen, not a fair sample: it gathers tests that were run many times, whatever their T/C, doses with no T/C, and many T/C values between a quarter and a half above the control. Other doses and runs of a compound stand elsewhere. T/C: endpoint of the treated group in % of that of the vehicle group. Some entries give survivors of the animals treated and no T/C: the source holds a T/C of zero for them, seemingly a mark for toxic or unscored doses. Some doses without a T/C left all or most animals alive at the check, yet need not have been tolerated: survival well below the control is almost never listed, so the zero probably covers shortened survival too. Counts of survivors are from the toxicity check (mostly the fifth day) where no day follows; animals may have died later. Schedule codes are those of the source, taken here to give the interval after Q, in days (D) or hours (H), and the number of doses after X. For survival time, this PubChem deposit counts one and a half times the control or more as active, and values a quarter to a half above the control carry no call in these data; other NCI protocols may use other cut-offs. Some entries were tested several times; the results are listed from low to high. Some T/C values carry the count of animals alive at the toxicity check (mostly the fifth day); where none is given, no animal had died by that day. Square brackets hold non-standard residues; d marks the D form. Peptide text beside a SMILES is read from it. * marks the point of attachment. ξ: configuration not given here. Cbz = O=C(OCc1ccccc1)*; ξK = NCCCCC(N)C(=O)O

Results on 22 compounds are retold here after PubChem BioAssay AID192 (DTP/NCI, 2004).

The assay concerns BDF1 mice, B16 melanoma ip, median survival T/C. Nature of the assay: NCI In Vivo Anticancer Drug Screen. Data for tumor model B16 Melanoma (intraperitoneal) in B6D2F1 (BDF1) mice. The settings on record: T/C endpoint: median survival time, higher T/C = longer survival. The method in brief:
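Tumor-bearing mice received test compound or vehicle. Survival or tumor size was then measured in both groups. The treated-group figure was divided by the control-group figure.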

The mark [1] stands for this setting: dose: 200.0 mg/kg/injection, schedule: Q01DX009 (ip), vehicle: saline with Tween-80.
[2] abbreviates: dose: 400.0 mg/kg/injection, schedule: Q01DX009 (ip), vehicle: saline with Tween-80.
The mark [3] stands for this setting: dose: 12.5 mg/kg/injection, schedule: Q01DX009 (ip), vehicle: saline with Tween-80.
The mark [4] stands for this setting: dose: 25.0 mg/kg/injection, schedule: Q01DX009 (ip), vehicle: saline with Tween-80.
The mark [5] stands for this setting: dose: 2.5 mg/kg/injection, schedule: Q01DX009 (ip), vehicle: Klucel (hydroxypropylcellulose) (HPC).
The mark [6] stands for this setting: dose: 10.0 mg/kg/injection, schedule: Q01DX009 (ip), vehicle: Klucel (hydroxypropylcellulose) (HPC).
Setting [7] is: dose: 12.5 mg/kg/injection, schedule: Q01DX009 (ip), vehicle: Klucel (hydroxypropylcellulose) (HPC).
Setting [8] is: dose: 50.0 mg/kg/injection, schedule: Q01DX009 (ip), vehicle: Klucel (hydroxypropylcellulose) (HPC).
Setting [9] is: dose: 200.0 mg/kg/injection, schedule: Q01DX009 (ip), vehicle: saline.
Setting [10] is: dose: 400.0 mg/kg/injection, schedule: Q01DX009 (ip), vehicle: saline.
Setting [11] is: dose: 50.0 mg/kg/injection, schedule: Q01DX009 (ip), vehicle: saline with Tween-80.
[12] abbreviates: dose: 100.0 mg/kg/injection, schedule: Q04DX003 (ip), vehicle: saline with Tween-80.
Setting [13] is: dose: 100.0 mg/kg/injection, schedule: Q01DX009 (ip), vehicle: saline with Tween-80.

`CCOC(=O)c1ccc(NS(=O)c2ccccc2)cc1` (configuration not stated): the survivor count under setting [1] is recorded as 9 of 10 and the survivor count under setting [2] is recorded as 8 of 10.
`NCC(=O)NC(CCCCNC(=O)OCc1ccccc1)C(=O)O` (configuration not stated) (H-Gly-[ξK](Cbz)-OH): the survivor count is 2 of 10 under setting [3] and 0 of 10 under setting [4].
As to `CC(=O)SCC(C)CCl` (configuration not stated), the survivor count under setting [1] is recorded as 8 of 10.
For the compound `CC1(c2ccc(N(CCCl)CCCl)cc2)NC(=O)NC1=O` (configuration not stated), the survivor count reads like this: under setting [5], 10 of 10; under setting [6], 10 of 10; (dose: 150.0 mg/kg/injection, schedule: Q01DX009 (ip), vehicle: Klucel (hydroxypropylcellulose) (HPC)) 9 of 10; (dose: 300.0 mg/kg/injection, schedule: Q01DX009 (ip), vehicle: Klucel (hydroxypropylcellulose) (HPC)) 8 of 10. Under setting [6], the T/C is 132 % of control [9 of 10 alive].
Consider `COc1ccc2nc3cc(Cl)ccc3c(NC(C)CCCN(CCCl)CCCl)c2c1` (configuration not stated), for which the survivor count is 10 of 10 (dose: 1.0 mg/kg/injection, schedule: Q01DX009 (ip), vehicle: saline); 6 of 10 (dose: 2.0 mg/kg/injection, schedule: Q01DX009 (ip), vehicle: saline); 10 of 10 (dose: 2.5 mg/kg/injection, schedule: Q04DX003 (ip), vehicle: saline with Tween-80); 10 of 10 (dose: 5.0 mg/kg/injection, schedule: Q04DX003 (ip), vehicle: saline with Tween-80).
As for `Cc1cc(=O)n2c3c(c(N)ccc13)OC2`, the survivor count (dose: 400.0 mg/kg/injection, schedule: Q01DX009 (ip), vehicle: Klucel (hydroxypropylcellulose) (HPC)) is 10 of 10.
For `CCN(Cc1ccc(Cl)c(Cl)c1)c1ccc2nc(N)nc(N)c2c1C`, the survivor count reads like this: (dose: 1.56 mg/kg/injection, schedule: Q01DX009 (ip), vehicle: Klucel (hydroxypropylcellulose) (HPC)) 8 of 10; under setting [7], 8 of 10; (dose: 25.0 mg/kg/injection, schedule: Q01DX009 (ip), vehicle: Klucel (hydroxypropylcellulose) (HPC)) 7 of 10; (dose: 25.0 mg/kg/injection, schedule: Q01DX009 (ip), vehicle: distilled water + Tween-80) 9 of 10; under setting [8], 6 of 10; (dose: 50.0 mg/kg/injection, schedule: Q01DX009 (ip), vehicle: distilled water + Tween-80) 8 of 10. For the same compound, the survivor count is 0 of 10 (dose: 100.0 mg/kg/injection, schedule: Q01DX009 (ip), vehicle: Klucel (hydroxypropylcellulose) (HPC)) and 3 of 10 (dose: 100.0 mg/kg/injection, schedule: Q01DX009 (ip), vehicle: distilled water + Tween-80).
For the compound `NC(=O)c1ccc[n+](Cc2c(Cl)cccc2Cl)c1`, the T/C (dose: 6.0 mg/kg/injection, schedule: Q01DX009 (ip), vehicle: saline) was 127 % of control.
As for `O=C1C=CN(C2OC(CO)C(O)C2O)C(=O)C1` (configuration not stated), the T/C under setting [9] is 125 % of control. In addition, the survivor count is 6 of 6 (dose: 400.0 mg/kg/injection, schedule: Q01DX009 (ip), vehicle: saline sonified) and 10 of 10 under setting [10].
Turning to `CCCC(C)C/C(C)=C/C(C)(C)C(CC(=O)N1CCOCC1)C(=O)O` (configuration not stated), the survivor count was 10 of 10 under setting [11] and 10 of 10 under setting [12].
Regarding `OC(CBr)C(O)C(O)C(O)CBr` (configuration not stated), the T/C is 141 % of control under setting [1]; 125 % of control (dose: 333.4 mg/kg/injection, schedule: Q01DX009 (ip), vehicle: saline with Tween-80); 126 % of control under setting [2]; 140 % of control under setting [10]. Also, under “dose: 320.0 mg/kg/injection, schedule: Q01DX009 (ip), vehicle: saline with Tween-80”, the survivor count is given as 10 of 10.
On to `CCCC1CC[N-]CC1.CCCC1CC[N-]CC1.CCCC1CC[N-]CC1.CCCC1CC[N-]CC1.[Cl][Rh][Cl]`, for which the survivor count runs as follows: (dose: 3.0 mg/kg/injection, schedule: Q01DX009 (ip), vehicle: Klucel (hydroxypropylcellulose) (HPC)) 5 of 10; (dose: 6.0 mg/kg/injection, schedule: Q01DX009 (ip), vehicle: Klucel (hydroxypropylcellulose) (HPC)) 0 of 10; (dose: 6.25 mg/kg/injection, schedule: Q01DX009 (ip), vehicle: saline with Tween-80) 8 of 10; under setting [3], 5 of 6; under setting [4], 3 of 6; (dose: 100.0 mg/kg/injection, schedule: Q01DX009 (ip), vehicle: saline) 0 of 6. For the same compound, the survivor count is reported as 0 of 6 under setting [9] and 0 of 6 under setting [10].
Turning to `COc1ccc(NC(=O)Nc2cc(Cl)ccc2OC)cc1`, under setting [7], the survivor count is listed as 10 of 10.
As to `CC1(C)COCN1COC1CCCCC1`, the T/C reads like this: under setting [13], 128 and 142 % of control; under setting [1], 125 % of control. Besides, the survivor count under setting [2] is on record as 0 of 10.
With `CCCCCCCCC(=O)N(C)OC`, the survivor count is reported as 10 of 10 (dose: 25.0 mg/kg/injection, schedule: Q04DX003 (ip), vehicle: saline with Tween-80); 10 of 10 (dose: 50.0 mg/kg/injection, schedule: Q04DX003 (ip), vehicle: saline with Tween-80); 10 of 10 under setting [12].
In the case of `O=[N+]([O-])c1ccc(N2CCC(CCCC3CCN(c4ccc([N+](=O)[O-])cc4[N+](=O)[O-])CC3)CC2)c([N+](=O)[O-])c1`, under setting [8], the survivor count is listed as 9 of 10.
Take `c1ccc2c(NCCCCCCNc3c4ccccc4nc4ccccc34)c3ccccc3nc2c1`: the T/C was 127 % of control [9 of 10 alive] (dose: 0.62 mg/kg/injection, schedule: Q01DX009 (ip), vehicle: Klucel (hydroxypropylcellulose) (HPC)); 142 % of control under setting [5]; 143 % of control (dose: 5.0 mg/kg/injection, schedule: Q01DX009 (ip), vehicle: Klucel (hydroxypropylcellulose) (HPC)).
For the compound `C/C=C(\CC)C(=O)NC(N)=O`, the survivor count by setting is: (dose: 100.0 mg/kg/injection, schedule: Q04DX003 (ip), vehicle: Klucel (hydroxypropylcellulose) (HPC)) 10 of 10; (dose: 400.0 mg/kg/injection, schedule: Q04DX003 (ip), vehicle: Klucel (hydroxypropylcellulose) (HPC)) 10 of 10.
With `Cc1c(CNc2ccc(C(=O)NC(CC(=O)O)CC(=O)O)cc2)ccc2nc(N)nc(N)c12`, the survivor count is on record as 10 of 10 (dose: 0.5 mg/kg/injection, schedule: Q01DX009 (ip), vehicle: saline with Tween-80); 10 of 10 (dose: 0.75 mg/kg/injection, schedule: Q01DX009 (ip), vehicle: saline); 10 of 10 (dose: 1.0 mg/kg/injection, schedule: Q01DX009 (ip), vehicle: saline with Tween-80); 10 of 10 (dose: 1.5 mg/kg/injection, schedule: Q01DX009 (ip), vehicle: saline); 10 of 10 (dose: 3.0 mg/kg/injection, schedule: Q01DX009 (ip), vehicle: saline).
Turning to `CC(=O)CC(c1ccccc1)c1c(O)c2ccccc2oc1=O` (configuration not stated), where the note is “dose: 0.4 mg/kg/injection, schedule: Q01DX009 (ip), vehicle: saline with Tween-80”, the survivor count is reported as 9 of 10.
Take `N#CCc1ccccc1C(=O)O`: the survivor count by setting is: (dose: 50.0 mg/kg/injection, schedule: Q04DX003 (ip), vehicle: gum acacia) 10 of 10; (dose: 200.0 mg/kg/injection, schedule: Q04DX003 (ip), vehicle: gum acacia) 10 of 10; (dose: 400.0 mg/kg/injection, schedule: Q04DX003 (ip), vehicle: gum acacia) 10 of 10.
For `CCCCOC(=O)/C=C(\Br)C(=O)OCCCC`, the survivor count by setting is: under setting [11], 10 of 10; under setting [13], 10 of 10; under setting [1], 9 of 10.
